# Drug screen on melanoma cell lines: apoptosis marker

Values as published with doi:10.1371/journal.pone.0140310, rounded.

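The test systems are human melanoma cell lines, treated with a pair of drugs for 72 h and then stained and imaged. Each value is the cleaved-PARP-positive fraction of nuclei relative to DMSO-treated wells, in %, so that 100 equals the control and higher values mean more apoptosis. Every drug was used at one fixed concentration, the higher of two screened. The file gives one value for each pair and line, without errors, so small differences may be noise. The marker varies much from line to line, for technical or biological reasons.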 Only some of the drugs and lines screened are listed, without regard to their results. An entry leaves out what has no value listed here. A dash means that no value is listed here.

Every entry is a combination with lapatinib at 4 µM: CS(=O)(=O)CCNCc1ccc(-c2ccc3ncnc(Nc4ccc(OCc5cccc(F)c5)c(Cl)c4)c3c2)o1

For O=c1[nH]nc(Sc2ncc([N+](=O)[O-])s2)n1-c1ccc2c(c1)OCCO2 at 1 µM the values were MeWo: 90.6; IST-MEL1: 91.1; A2058: 105; G-361: 51.4; COLO 829: 153.
For CCN(CC)CCNC(=O)c1c(C)[nH]c(/C=C2\C(=O)Nc3ccc(F)cc32)c1C at 2 µM the values were MeWo: 160; IST-MEL1: 54.4; A2058: 390; G-361: 1680; COLO 829: 138.
For C/C(O)=C(\C#N)C(=O)Nc1cc(Br)ccc1Br at 10 µM the values were MeWo: 143; IST-MEL1: 84.0; A2058: 98.4; G-361: 78.8; COLO 829: 182; MZ2-MEL: 169.
For CC(C)CCN1c2nc(Nc3cc(F)c(O)c(F)c3)ncc2N(C)C(=O)C1C (stereo not shown) at 1 µM the values were MeWo: 223; IST-MEL1: 244; A2058: 216; G-361: 335; COLO 829: 131; MZ2-MEL: 121.
For Cc1cc(SCc2sc(-c3ccc(C(F)(F)F)c(F)c3)nc2C)ccc1OCC(=O)O at 10 µM the values were MeWo: 126; IST-MEL1: 90.7; A2058: 112; G-361: 207; COLO 829: 134; MZ2-MEL: 116.
For O=C(O)c1ccc2c(c1)nc(Nc1cccc(Cl)c1)c1ccncc12 at 2 µM the values were MeWo: 87.0; IST-MEL1: 38.7; A2058: 258; G-361: 290; COLO 829: 423; MZ2-MEL: 74.5.
For c1cc(-c2cnn3cc(-c4ccc(OCCN5CCCCC5)cc4)cnc23)ccn1 at 2 µM the values were MeWo: 182; IST-MEL1: 48.5; A2058: 179; G-361: 855; COLO 829: 98.3; MZ2-MEL: 357.
For O=C(O)c1ccc(-c2c[nH]c3ncc(-c4ccccc4)cc23)cc1C1CCCC1 at 0.8 µM the values were MeWo: 139; IST-MEL1: 178; A2058: 156; G-361: 221; COLO 829: 253; MZ2-MEL: 64.5.
For Oc1nc(-c2ccc(C(F)(F)F)cc2)nc2c1CSCC2 at 10 µM the values were MeWo: 34.7; IST-MEL1: 215; A2058: 126; G-361: 101; COLO 829: 158; MZ2-MEL: 96.8.
For Cn1cnc2c(F)c(Nc3ccc(Br)cc3Cl)c(C(=O)NOCCO)cc21 at 0.075 µM the values were MeWo: 136; IST-MEL1: 32.1; A2058: 132; G-361: 134; COLO 829: 182; MZ2-MEL: 92.5.
For C[C@]12O[C@H](C[C@]1(O)CO)n1c3ccccc3c3c4c(c5c6ccccc6n2c5c31)CNC4=O at 0.02 µM the values were MeWo: 111; IST-MEL1: 321; A2058: 170; G-361: 175; COLO 829: 132; MZ2-MEL: 63.5.
For CN(C)S(=O)(=O)c1ccc2c(c1)/C(=C/c1cc3c([nH]1)CCCC3)C(=O)N2 at 2 µM the values were MeWo: 265; IST-MEL1: 287; A2058: 304; G-361: 459; COLO 829: 283; MZ2-MEL: 73.6.
For COc1ccc(-c2ccc3c(N4CCOCC4)nc(N4C[C@@H](C)O[C@@H](C)C4)nc3n2)cc1CO at 0.1 µM the values were MeWo: 47.9; IST-MEL1: 133; A2058: 91.0; G-361: 128; COLO 829: 137; MZ2-MEL: 153.
For C[C@@H]1CCN(C(=O)CC#N)C[C@@H]1N(C)c1ncnc2[nH]ccc12 at 5 µM the values were MeWo: 62.7; IST-MEL1: 78.0; A2058: 57.6; G-361: 221; COLO 829: 112; MZ2-MEL: 34.0.
For CN1CCN(c2ccc3nc(-c4c(N)c5c(F)cccc5[nH]c4=O)[nH]c3c2)CC1 at 0.5 µM the values were MeWo: 380; IST-MEL1: 103; A2058: 882; G-361: 275; COLO 829: 201; MZ2-MEL: 206.

Repeated from the top, 2 entries:

| Partner | MeWo | IST-MEL1 | A2058 | G-361 | COLO 829 | MZ2-MEL |
|---|---|---|---|---|---|---|
| O=c1[nH]nc(Sc2ncc([N+](=O)[O-])s2)n1-c1ccc2c(c1)OCCO2 at 1 µM | 90.6 | 91.1 | 105 | 51.4 | 153 | - |
| CCN(CC)CCNC(=O)c1c(C)[nH]c(/C=C2\C(=O)Nc3ccc(F)cc32)c1C at 2 µM | 160 | 54.4 | 390 | 1680 | 138 | - |